Some peptides are written in HELM: one residue between dots, names in brackets for other building blocks, links after the first $.
Experiment: general procedure: peptide synthesis; 2-chlorotrityl chloride polystyrene resin; PyBOP/HOBt/DIPEA; PyBrOP/DIPEA for coupling to MePhe
Conditions: whole synthesis, TFA salt

PEPTIDE1{[ac].[dA].[Arg(MC)].[MePhe].[isoAsp]}$$$$V2.0
crude mass: 12.3 mg | isolated mass: 4.0 mg | isolated yield (based on 0.21 mmol starting resin, scale of the general procedure 0.42 mmol resin, divided into two equal portions (0.21 mmol)): 26%
